The record followed here is patent US20250353895A1, “METHOD FOR ANALYZING G-PROTEIN CONJUGATED RECEPTOR” (Kao Corporation, priority 2022, published 2025).

In the series the test system is HEK293 cells. The series can be described thus: Measurement of receptor protein level on cell membrane (flow cytometry), receptor gene co-transfected with RTP1S. It counts as cell-based, human. The settings on record: consensus receptor on HEK293 cells; PE signal normalised, NC (no receptor) 0%, PC (FLAG-M2 acetylcholine receptor) 100%; average of three experiments.

B1: consensus VN1R4: consensus GPCR of human VN1R4 (protein)
chain: MASRYVAVGMIFLSQTVVGVLGNFSLLLHYLSLYCTGCRLRSTDLIVKHLIVANFLALLCKGVPQTMAAFGVRYFLNAIGCKLVFYLHRVGRGVSIGTTCLLSVFQVITISSRKSRWAKLKEKAPKHVGFSVLLCWILCMLVNIIFPMYVTGKWNYTNITVNKDLGYCSGGGNNKIAQTLRAMLLSFPDVLCLGLMLWASSSMVCILHRHKQRVQHIDRSNLSPRASPENRATQSILILVSTFVSSYTLSCLFQVCIALLDNPNSLLVNTSALMSVCFPTLSPFVLMSCDPSVYRLCFAWKR
With B1, the “Consensus Membrane expression level (%)” value was 0.87%.

B2: consensus TAAR8: consensus GPCR of human TAAR8 (protein)
chain: MTSNFSQPVVQLCYENVNGSCIKTPYSPGSRVILYTVFGFGSLLAVFGNLLVMTSVLHFKQLHSPANFLIASLACADFLVGVTVMPFSMVRSVESCWYFGAKFCTLHSCCDVAFCYSSLFHLCFISIDRYIAVTDPLVYPTKFTVSVSGICISISWILPLVYSGAVFYTGVSDDGMEELVSALNCVGGCQIVVNQDWVLIDFLLFFIPTLVMIILYSKIFLVAKQQAIKIETTGSKAESSSESYKARVAKRERKAAKTLGVTVVAFMISWLPYTIDTLIDAFMGFITPAYIYEICCWGAYYNSAMNPLIYALFYPWFRKAIKLILSGEVLKASSSTISLFSE
In the case of B2, the “Consensus Membrane expression level (%)” value is recorded as 5.54%.

B3: consensus MrgprF: consensus GPCR of human MrgprF (protein)
chain: MAGNCSWEAHPGNRNKMCPGLSEAPELYSRGFLTIEQIAMLPPPAVMNYIFLLLCLCGLVGNGLVLWFFGFSIKRNPFSIYFLHLASADVGYLFSKAVFSILNTGGFLGTFADYVRAVCRILGLCMFLTGVSLLPAISAERCLSVIFPAWYWRRRPKRLSAVVCALLWVLSLLVTCIHNYFCVFLGRGASGAACRHMDIFLGILLFLVFCPLMVLPCLALILHVECRARRRQRSAKLNHVILAMVSVFLVSSIYLGIDWFLFWVFQIPAPFPEYVTDLCICINSSAKPVVYFLAGRDKSQRLWEPLRVVFQRALRDGAELGEAGGGTPNTVTMEMQCPSGNAS
Consider B3, for which the “Consensus Membrane expression level (%)” value is 136.39%.

B4: consensus TAAR9: consensus GPCR of human TAAR9 (protein)
chain: MVNNFSQAEAVELCYENVNGSCIKTPYSPGPRAILYAVLGFGAVLAVFGNLLVIIAILHFKQLHTPTNFLIASLACADFLVGVTVMPFSTVRSVESCWYFGESYCKFHTCFDTSFCFASLFHLCCISIDRYIAVTDPLTYPTKFTVSVSGICIVLSWFFSVTYSFSIFYTGANEEGIEELVVALTCVGGCQAPLNQNWVLLCFLLFFIPTVAMVFIYGKIFLVAKHQARKIESTASQAQSSSESYKERVAKRERKAAKTLGIAMAAFLVSWLPYIIDAVIDAYMNFITPPYVYEILVWCVYYNSAMNPLIYAFFYPWFRKAIKLIVSGKVLRTDSSTTNLFSEEADTD
For the molecule B4, the “Consensus Membrane expression level (%)” value came to 5.31%.

B5: consensus GPR31: consensus GPCR of human GPR31 (protein)
chain: MPFPNCSAPSTVVETAVAVLLGLECGLGLLGNAVALWTFFFRLKVWKPYAVYLLNLVLADLLLAACLPFLAAFYLRLKTWHLGRVGCQALLFLLDLSRGVGVAFLTAVALDRYLRVVHPRLKVNLLSPRAAWGISGLVWLLMVALTHLSLISESTECPSFYPRDGSFSIIWQEALFFLQFVLPFGLILFCNAGIIRTLQKRLRDPDKQPKLQRAQALVTLVVVLFALCFLPSFLARVLMAIFRNLGSCRALCAVVHTSDVTGSLTYLQSVLNPVVYCFSNPAFRSSYRKVFHLRGRGQAAEPPGFDPRDSYS
On to B5, for which the “Consensus Membrane expression level (%)” value stood at 112.78%.

B6: consensus VN1R2: consensus GPCR of human VN1R2 (protein)
chain: MASVDLFIGMIVLFQVVVGILGNFSLLYHYMFLYFRGCKPRSTDLILRHLTVANSLVILSRGIPETMAAFGLKHFDNYFGCKFLLYVHRVARGVSIGSTCLLSVFQVITINPRNSRWAEMKVKAPKYIGLSSILCWVLHMLVNAIFPIYTTGKWSNKNITKKGDLGYCSAPLHDEVIKSVYAALTSFHDVLCLGLMTWASSSMVFVLYRHKQQVQHIHRNNLSPRSSPENRATQSILVLVSTFVSFYALSSIIYVYLALFDNSSWWLVNTAALITACFPTISPFVLMCHDPSISRLCCICCGRNR
As to B6, the “Consensus Membrane expression level (%)” value is on record as 14.42%.

B7: consensus MrgprE: consensus GPCR of human MrgprE (protein)
chain: MEPREAGQHVGAANGAQEDVAFNLIILSLTEGLGLGGLLGNGAVLWLLSSNVYRNPFSIYLLDVACADLIFLGCHMVAIIPDLLQGRLDFPGFVQTSLATLRFFCYIVGLSLLAAVSVEQCLATLFPAWYSCRRPRHLTTCVCALTWALCLLLHLLLSGACTQFFGEPSRHLCRTLWLVAAVLLALLCCTMCGASLLLLLRVERGPQRPQPRGFPGLVLLAVLLFLFCGLPFGIYWLSRNLLWHIPHYFYHFSFLMAAVHCAAKPVIYFCLGSAQGRRLPLRLVLQRALGDEAELGAVRETSRRGLVDIAA
For the molecule B7, the “Consensus Membrane expression level (%)” value is reported as 27.41%.

B8: consensus VN1R1: consensus GPCR of human VN1R1 (protein)
chain: MVGDTLKLLSPLMTRYFFLLFYSTDSSDFNENQHPLDFDGMASGKLESGISFLIQTGVGILGNSFLLCFYNFILLTGNKLRPMDLILSQLALANSLVLFSKGIPQTMAAFGLKYFLDDTGCKLVFYYHRVGTGVSFSTICLLNGFQAIKLNPSICRWLELKIRSPKFIGFCCFLCWAPHLLINTSVLFLVNGPLNSKNLSVKNNYGYCSWKMPERFGTLYTVLYFSPDFMSLGFMVWASGSMVFVLYRHKQRVQHIHSNRLSSRPSHEARATHTIMVLVSSFFAFYSVHSILTIWMTVVANPGQWIVNNSVFVASCFPAFSPFVLIFSDTHVSQFCFACRTKKTLFPDLVAMP
As for B8, the “Consensus Membrane expression level (%)” value was determined as 4.17%.

B9: consensus GPR171: consensus GPCR of human GPR171 (protein)
chain: MTNSSFFCPVYKDLEPFTYFFYLVFLVGIIGSCFATWAFIQKNTNHRCVSIYLINLLTADFLLTLALPVKIVVDLGVAPWKLRIFHCQVTACLIYINMYLSIIFLAFVSIDRCLQLTHSCKIYRIQEPGFAKMISTVVWLMVLLIMVPNMMIPIKDIKEKPNVGCMEFKKEFGRNWHLLTNFICVAIFLNFSAIILISNCLVIRQLYRNKDNENYPNVKKALINILLVTAGYIICFVPYHIVRIPYTLSQTEVISDCSTRISLFKAKEATLLLAVSNLCFDPILYYHLSKAFRLKVTETFASPKETKAQKEKLRCENNA
B9: the “Consensus Membrane expression level (%)” value is listed as 108.04%.

B10: consensus TAAR6: consensus GPCR of human TAAR6, N-terminal structure of the original maintained (protein)
chain: MSSNSSPLAAVQLCYENVNGSCVKTPYSPGSRVILYIVFGFGAVLAVFGNLLVMISILHFKQLHSPTNFLIASLACADFLVGVTVMPFSMVRSVESCWYFGRSFCTFHTCCDVAFCYSSLFHLCFISIDRYIAVTDPLVYPTKFTVSVSGICISISWILPLVYSGAVFYTGAYDDGLEELSSALNCVGGCQTVVNQNWVLIDFLSFFIPTLVMIILYSNIFLVARQQAKKIENTGSKTESSSESYKARVAKRERKAAKTLGITVVAFMISWLPYSIDSLIDAFMGFITPAYIYEICCWCAYYNSAMNPLIYALFYPWFRKAIKVIVSGQVFKNSSATMNLFSEQI
B10: the “Consensus Membrane expression level (%)” value was determined as 21.82%.

B11: consensus GPR82: consensus GPCR of human GPR82 (protein)
chain: MNNNSTCIQPSMISSMALPIIYIFLCIVGLFGNSLSQWVFLTKIGKKTSTHIYLAHLVTANLLVCSAMPFMSIYFLKGFQWEYQSAQCRVVNFLGTLSMHVSMFVSLLILSWIAISRYATLMKKDSSQETTSCYEKIFYGHLLKKFRQPNFARKLCIYIWGVVLGIIIPVIIYYSVVEATEGEESLCYNRQMELGAMISQIAGLIGTTFIGFSFLVVLTSYYSFVSHLRKIRTCTSIMEKDLTYSSVKRHLLVIQILLIVCFLPYSIFKPIFYVLHQRDDCQQLNYLIEIKNILTCLASARSSTDPIIFLLLDKTFKKTLYNLFTKSNSHMQSYG
On to B11, for which the “Consensus Membrane expression level (%)” value stood at 113.22%.

B12: consensus GPR88: consensus GPCR of human GPR88 (protein)
chain: MTNSTSGGSLLLLCSWAGRRIPVSLLYSGLAIGGTLANGMVIYLVSSFRKLQTTSNAFIVNGCAADLSVCALWMPQEAVLGLLPTGSAEPPGGSYRLLRGGLLGLGLTVSLLSHCLVALNRYLLITRAPAYQALYQRRHTAGMLALSWALALGLVLLLPPWAPRPGAAPPRVHYPALLAAAALLAQTALLLHCYLGIVRRVRVSVKRVSVLNFHLLHQLPGCAAAAHPRRAQRRLSGLSVLLLCCVFLLATQPLVWVSLASGFSLPVPWGVQAASWLLCCALSALNPLLYTWRNEEFRRSVRSVLPGVGDAAAAAVAAAVPAVQLGTRAAGQHW
With B12, the “Consensus Membrane expression level (%)” value came to 27.25%.

B13: consensus GPR65: consensus GPCR of human GPR65 (protein)
chain: MNSTCIEEQHDLDHYLFPIVYIFVIIVSIPANIGSLCVSFLQAKKENELGIYLFSLSLSDLLYALTLPLWIDYTWNKDNWTFSPALCKGSAFLMYMNFYSSTAFLTCIAVDRYLAVVYPLKFSFLRTRRFAFMVSLSIWVLETIFNAVILWEDETFVEYCDAKKSNFTLCYDKYPLEKWQINLNLFRTCTGYAIPLVIIMICNQKVYQAVRHNQATENSEKKRIIKLLVSITLTFVLCFTPFHVMLLIRSILEHDVNFDDHYFDDPKSGKQTYKIYRITVALTSLNCVADPILYCFVTETGRSDMWNILKFCTGKLNKSQRQRKSILSMSTKDTVELEILE
As to B13, the “Consensus Membrane expression level (%)” value is given as 59.40%.
